The values that follow come from patent publication US20170320960A1.

Sequences of proteins named here, by UniProt entry; tags and fusion partners are left off. A change or cut given only in a name is not applied to a line headed by its entry.
UniProt P08582: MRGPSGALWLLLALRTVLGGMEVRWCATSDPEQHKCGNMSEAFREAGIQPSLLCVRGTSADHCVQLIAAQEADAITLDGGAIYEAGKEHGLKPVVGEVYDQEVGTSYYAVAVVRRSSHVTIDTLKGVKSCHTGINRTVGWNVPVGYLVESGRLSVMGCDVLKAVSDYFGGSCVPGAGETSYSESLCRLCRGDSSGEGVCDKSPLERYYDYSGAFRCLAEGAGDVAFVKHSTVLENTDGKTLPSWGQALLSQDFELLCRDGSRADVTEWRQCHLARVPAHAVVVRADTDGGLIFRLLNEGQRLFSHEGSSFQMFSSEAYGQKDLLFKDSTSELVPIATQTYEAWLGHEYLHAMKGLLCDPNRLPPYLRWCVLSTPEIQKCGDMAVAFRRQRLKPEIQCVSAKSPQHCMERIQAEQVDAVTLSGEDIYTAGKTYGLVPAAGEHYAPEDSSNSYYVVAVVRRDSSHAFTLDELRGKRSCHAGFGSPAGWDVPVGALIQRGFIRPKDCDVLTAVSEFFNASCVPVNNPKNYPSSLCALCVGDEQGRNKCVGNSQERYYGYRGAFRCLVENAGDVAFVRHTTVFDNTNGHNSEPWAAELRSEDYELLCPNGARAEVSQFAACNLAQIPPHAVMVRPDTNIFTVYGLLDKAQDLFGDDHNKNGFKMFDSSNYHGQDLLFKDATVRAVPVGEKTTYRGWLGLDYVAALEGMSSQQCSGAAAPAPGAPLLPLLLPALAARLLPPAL

These are yes or no findings as the source states them, for the method shown. Some binding calls cover weakened binding; strength is not graded here.

To fix the notation:
B1: SC57.46 (antibody, V domains shown)
VH: QVQLKESGPGLVAPSQSLSITCTVSGFSLTSYGVHWVRQPPGKGLEWLGIIWAGGTTNYNSALMSRLSIRKDNSKSQVFLKMNSLQTDDTAMYYCARDRGYDGYFDYAVDYWGQGTSVTVSS
VL: DIQMTQSPPSLSASVGETVTITCRTSENIYSYLTWYQQKQGKSPQLLVYNAKTLAEGVPSRFSGSGSGTQFSLKINSLQPEDFGSYYCQHHYGTPLTFGAGTKLELK
B2: SC57.6 (antibody, V domains shown)
VH: GVQVVESGGGVVQPGGSLKLSCAASGFTFSSYAMSWVRQTPEKRLEWVAYLSRGGGSTYYLDTVKGRFTISRDNAKNTLYLQMNSLKSEDTAMYYCARLDGYNWYFDVWGAGTPVTVSS
VL: DIVMSQSPSSLAVSAGEKVTMSCKSSQSLLHSRIRKNYLAWYQQKPGQSPKLLIYWASTRESGVPDRFTGSGSGTDFTLTISSVQAEDLAVYYCKQSYNLFTFGGGTKLEIK
B3: SC57.29 (antibody, V domains shown)
VH: QVQLQQSGAELMKPGASVKISCKATGYTFSNYRIEWIKQRPGHGLEWIGEILPRGGNTNYNEKFKGKATFTADTSSNTAYMQLTSLTSEDSAVYYCARDDGYYGRFAYWGQGTLVTVSA
VL: DIQMTQTTSSLSASLGDRVTISCRASQDISNYLNWYQQKPDGTVKLLIFYTSRLHSGVPSRFSGSGSGTDYSLTISNLEQEDFATYFCQQGNTLPPTFGGGTKLEIK
B4: SC57.38 (antibody, V domains shown)
VH: QVQLQQSGAELMKPGASVKISCKATGYTFSNYRIEWIKQRPGHGLEWIGEILPRGGNTNYNEKFKGKATFTADTSSNTAYMQLTSLTSEDSAVYYCARDDGYYGRFAYWGQGTLVTVSA
VL: DIQMTQTTSSLSASLGDRVTISCRASQDISNYLNWYQQKPDGTVKLLIFYTSRLHSGVPSRFSGSGSGTDYSLTISNLEQEDFATYFCQQGNTLPPTFGGGTKLEIK
B5: SC57.30 (antibody, V domains shown)
VH: QVQLQQSGAELMKPGASVKISCKATGYTFSNYRIEWIKQRPGHGLEWIGEILPRGGNTNYNEKFKGKATFTADTSSNTAYMQLTSLTSEDSAVYYCARDDGYYGRFAYWGQGTLVTVSA
VL: DIQMTQTTSSLSASLGDRVTISCRASQDISNYLNWYQQKPDGTVKLLIFYTSRLHSGVPSRFSGSGSGTDYSLTISNLEQEDFATYFCQQGNTLPPTFGGGTKLEIK
B6: SC57.35 (antibody, V domains shown)
VH: QVQLQQSGAELMKPGASVKISCKATGYTFSNYRIEWIKQRPGHGLEWIGEILPRGGNTNYNEKFKGKATFTADTSSNTAYMQLTSLTSEDSAVYYCARDDGYYGRFAYWGQGTLVTVSA
VL: DIQMTQTTSSLSASLGDRVTISCRASQDISNYLNWYQQKPDGTVKLLIFYTSRLHSGVPSRFSGSGSGTDYSLTISNLEQEDFATYFCQQGNTLPPTFGGGTKLEIK
B7: SC57.56 (antibody, V domains shown)
VH: QVQLQQSGAELMKPGASVKISCKATGYTFSNYRIEWMKQRPGHGLEWIGEILPRTGNTNYNENFKGKATFTADTSSNTAYIQLSSLTSEDSAVYYCARDDGYYGRFAYWGQGTLVTVSA
VL: DIQMTQTTSSLSASLGDRVTISCRASQDISSYLNWYQQKPDGTVKLLIYYTSRLHSGVPSRFSGSGSGTDYSLTINNLEQEDIATYFCQQGNTLPPTFGGGTKLEIK
B8: SC57.51 (antibody, V domains shown)
VH: QVQLQQSGAELMKPGASVKISCKATGYTFSNYRIEWIKQRPGHGLEWIGEILPRGGNTNYNEKFKGKATFTADTSSNTAYMQLTSLTSEDSAVYYCARDDGYYGRFAYWGQGTLVTVSA
VL: DIQMTQTTSSLSASLGDRVTISCRASQDISNYLNWYQQKPDGTVKLLIFYTSRLHSGVPSRFSGSGSGTDYSLTISNLEQEDFATYFCQQGNTLPPTFGGGTKLEIK
B9: SC57.40 (antibody, V domains shown)
VH: QVQLQQSGAELMKPGASVKISCKATGYTFSNYRIEWIKQRPGHGLEWIGEILPRGGNTNYNEKFKGKATFTADTSSNTAYMQLTSLTSEDSAVYYCARDDGYYGRFAYWGQGTLVTVSA
VL: DIQMTQTTSSLSASLGDRVTISCRASQDISNYLNWYQQKPDGTVKLLIFYTSRLHSGVPSRFSGSGSGTDYSLTISNLEQEDFATYFCQQGNTLPPTFGGGTKLEIK
B10: SC57.47 (antibody, V domains shown)
VH: QVQLQQSGAELMKPGASVKISCKATGYTFSNYRIEWIKQRPGHGLEWIGEILPRGGNTNYNEKFKGKATFTADTSSNTAYMQLTSLTSEDSAVYYCARDDGYYGRFAYWGQGTLVTVSA
VL: DIQMTQTTSSLSASLGDRVTISCRASQDISNYLNWYQQKPDGTVKLLIFYTSRLHSGVPSRFSGSGSGTDYSLTISNLEQEDFATYFCQQGNTLPPTFGGGTKLEIK
B11: SC57.41 (antibody, V domains shown)
VH: QVQLQQSGAELMKPGASVKISCKATGYTFSNYRIEWMKQRPGHGLEWIGEILPRTGNTNYNENFKGKATFTADTSSNTAYIQLSSLTSEDSAVYYCARDDGYYGRFAYWGQGTLVTVSA
VL: DIQMTQTTSSLSASLGDRVTISCRASQDISSYLNWYQQKPDGTVKLLIYYTSRLHSGVPSRFSGSGSGTDYSLTINNLEQEDIATYFCQQGNTLPPTFGGGTKLEIK
B12: SC57.54 (antibody, V domains shown)
VH: QVQLQQSGAELMKPGASVKISCKATGYTFSNYRIEWIKQRPGHGLEWIGEILPRGGNTNYNEKFKGKATFTADTSSNTAYMQLTSLTSEDSAVYYCARDDGYYGRFAYWGQGTLVTVSA
VL: DIQMTQTTSSLSASLGDRVTISCRASQDISNYLNWYQQKPDGTVKLLIFYTSRLHSGVPSRFSGSGSGTDYSLTISNLEQEDFATYFCQQGNTLPPTFGGGTKLEIK
B13: SC57.45 (antibody, V domains shown)
VH: QVQLQQSGAELMKPGASVKISCKATGYTFSNYRIEWIKQRPGHGLEWIGEILPRGGNTNYNEKFKGKATFTADTSSNTAYMQLTSLTSEDSAVYYCARDDGYYGRFAYWGQGTLVTVSA
VL: DIQMTQTTSSLSASLGDRVTISCRASQDISNYLNWYQQKPDGTVKLLIFYTSRLHSGVPSRFSGSGSGTDYSLTISNLEQEDFATYFCQQGNTLPPTFGGGTKLEIK
B14: SC57.53 (antibody, V domains shown)
VH: QVHLKESGPGLVAPSQSLSITCTVSGFSLTTYGVHWVRQPPGKGLEWLGVIWAGGSTKYNSAFMSRLSISKDNSKTQVLLKMNSLQTDDTAMYYCARVASHGSSSWFAYWGQGTLVTVSA
VL: DIVLTQSPATLSVTPGDSVSLSCRASQSVGNSLHWYQQKSHESPRLLIKYASQSISGIPSRFSGSGSGTDFTLSINSVETEDFGMYFCQQSDSWPLTFGTGTKLELK
B15: SC57.57 (antibody, V domains shown)
VH: QVHLKESGPGLVAPSQSLSITCTVSGFSLTTYGVHWVRQPPGKGLEWLGVIWAGGSTKYNSAFMSRLSISKDNSKTQVLLKMNSLQTDDTAMYYCARVASHGSSSWFAYWGQGTLVTVSA
VL: DIVLTQSPATLSVTPGDSVSLSCRASQSVGNSLHWYQQKSHESPRLLIKYASQSISGIPSRFSGSGSGTDFTLSINSVETEDFGMYFCQQSDSWPLTFGTGTKLELK

In this test the target is hMFI2 Tf-like Domain 2 (TLD2), amino acids 366-709, displayed on yeast (human) (UniProt P08582). Put plainly: flow cytometry on yeast displaying hMFI2 domains. For orientation: Flow cytometry measures light scatter and fluorescence of single cells or particles in a stream.
B1: the binding entry is on record as “binds”.
Take B2: the binding entry is “binds”.
The value for B3 was “binds”.
Next, B4: “binds”.
Next, B5: “binds”.
Regarding B6, the binding result was “binds”.
For the molecule B7, the binding entry is recorded as “binds”.
Turning to B8, the binding result was “binds”.
As to B9, the binding entry is listed as “binds”.
The value for B10 was “binds”; that for B11 was “binds”; that for B12 was “binds”.
As for B13, the binding entry is “binds”.
The value for B14 was “binds”.
The value for B15 was “binds”.
